Some of the results follow.

Sequences of proteins named here, by UniProt entry; tags and fusion partners are left off. A change or cut given only in a name is not applied to a line headed by its entry.
UniProt Q9BU76: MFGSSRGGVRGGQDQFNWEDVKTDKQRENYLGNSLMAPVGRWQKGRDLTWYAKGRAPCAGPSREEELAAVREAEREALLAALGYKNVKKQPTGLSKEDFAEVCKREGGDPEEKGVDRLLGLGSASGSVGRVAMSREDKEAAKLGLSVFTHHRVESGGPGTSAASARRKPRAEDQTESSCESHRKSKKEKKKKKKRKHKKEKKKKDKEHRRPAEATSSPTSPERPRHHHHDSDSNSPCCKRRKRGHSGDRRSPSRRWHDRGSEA
UniProt O96007: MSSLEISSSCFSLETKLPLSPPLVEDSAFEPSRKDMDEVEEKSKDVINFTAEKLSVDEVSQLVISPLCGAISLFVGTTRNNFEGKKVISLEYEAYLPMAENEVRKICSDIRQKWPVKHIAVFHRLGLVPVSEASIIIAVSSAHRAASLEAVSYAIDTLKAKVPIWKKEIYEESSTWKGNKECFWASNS
UniProt P25325: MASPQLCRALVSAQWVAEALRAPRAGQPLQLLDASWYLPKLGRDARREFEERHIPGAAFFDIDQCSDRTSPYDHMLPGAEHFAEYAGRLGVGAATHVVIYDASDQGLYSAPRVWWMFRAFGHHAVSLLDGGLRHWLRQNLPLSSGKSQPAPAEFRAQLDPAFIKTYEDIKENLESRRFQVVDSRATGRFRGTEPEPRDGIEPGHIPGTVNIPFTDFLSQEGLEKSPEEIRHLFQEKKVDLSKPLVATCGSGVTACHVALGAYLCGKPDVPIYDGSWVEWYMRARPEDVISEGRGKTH
UniProt P34949: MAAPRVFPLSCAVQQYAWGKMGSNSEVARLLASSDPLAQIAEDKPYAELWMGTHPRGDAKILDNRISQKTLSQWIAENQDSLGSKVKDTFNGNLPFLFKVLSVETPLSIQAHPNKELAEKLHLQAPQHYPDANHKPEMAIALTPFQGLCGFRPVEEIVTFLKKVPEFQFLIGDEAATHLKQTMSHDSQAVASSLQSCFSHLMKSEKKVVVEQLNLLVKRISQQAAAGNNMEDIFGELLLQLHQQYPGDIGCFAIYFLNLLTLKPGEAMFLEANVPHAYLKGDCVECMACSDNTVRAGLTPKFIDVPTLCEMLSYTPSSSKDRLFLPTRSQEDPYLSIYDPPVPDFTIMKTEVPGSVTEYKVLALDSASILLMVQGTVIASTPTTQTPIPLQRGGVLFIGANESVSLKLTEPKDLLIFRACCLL
UniProt P14174: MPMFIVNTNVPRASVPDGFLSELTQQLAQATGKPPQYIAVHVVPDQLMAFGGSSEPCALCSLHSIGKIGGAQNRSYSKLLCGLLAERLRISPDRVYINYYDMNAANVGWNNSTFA
UniProt Q9NXC5: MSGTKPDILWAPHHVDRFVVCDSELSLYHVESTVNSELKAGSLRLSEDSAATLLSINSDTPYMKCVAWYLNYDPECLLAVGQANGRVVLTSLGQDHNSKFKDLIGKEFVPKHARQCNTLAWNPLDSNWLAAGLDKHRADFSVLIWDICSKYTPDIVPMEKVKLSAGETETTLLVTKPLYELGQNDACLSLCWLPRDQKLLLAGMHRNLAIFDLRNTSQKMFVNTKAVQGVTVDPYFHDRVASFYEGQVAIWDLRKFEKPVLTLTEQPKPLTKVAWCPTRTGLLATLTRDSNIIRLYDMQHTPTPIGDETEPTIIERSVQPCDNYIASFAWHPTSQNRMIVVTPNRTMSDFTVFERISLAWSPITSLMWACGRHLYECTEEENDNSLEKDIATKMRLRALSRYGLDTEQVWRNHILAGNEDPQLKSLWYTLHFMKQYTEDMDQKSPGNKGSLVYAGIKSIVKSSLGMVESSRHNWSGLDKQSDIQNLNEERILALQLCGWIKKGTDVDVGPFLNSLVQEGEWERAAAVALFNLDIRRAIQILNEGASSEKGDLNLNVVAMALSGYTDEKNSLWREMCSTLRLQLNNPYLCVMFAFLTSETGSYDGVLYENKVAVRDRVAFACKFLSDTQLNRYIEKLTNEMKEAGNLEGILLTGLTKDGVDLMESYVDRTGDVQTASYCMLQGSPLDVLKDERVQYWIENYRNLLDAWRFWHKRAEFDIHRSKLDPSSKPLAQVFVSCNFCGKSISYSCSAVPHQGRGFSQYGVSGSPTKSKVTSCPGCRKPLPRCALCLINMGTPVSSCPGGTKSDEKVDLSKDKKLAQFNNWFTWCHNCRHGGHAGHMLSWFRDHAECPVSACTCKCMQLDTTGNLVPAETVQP
UniProt A9UHW6: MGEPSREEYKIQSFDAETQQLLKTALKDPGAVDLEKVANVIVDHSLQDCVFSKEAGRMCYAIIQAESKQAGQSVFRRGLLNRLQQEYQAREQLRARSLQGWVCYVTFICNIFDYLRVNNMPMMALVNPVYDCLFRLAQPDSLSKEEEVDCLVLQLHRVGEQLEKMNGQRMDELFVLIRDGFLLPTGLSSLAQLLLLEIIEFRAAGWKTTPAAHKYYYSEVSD
UniProt Q8N4C8: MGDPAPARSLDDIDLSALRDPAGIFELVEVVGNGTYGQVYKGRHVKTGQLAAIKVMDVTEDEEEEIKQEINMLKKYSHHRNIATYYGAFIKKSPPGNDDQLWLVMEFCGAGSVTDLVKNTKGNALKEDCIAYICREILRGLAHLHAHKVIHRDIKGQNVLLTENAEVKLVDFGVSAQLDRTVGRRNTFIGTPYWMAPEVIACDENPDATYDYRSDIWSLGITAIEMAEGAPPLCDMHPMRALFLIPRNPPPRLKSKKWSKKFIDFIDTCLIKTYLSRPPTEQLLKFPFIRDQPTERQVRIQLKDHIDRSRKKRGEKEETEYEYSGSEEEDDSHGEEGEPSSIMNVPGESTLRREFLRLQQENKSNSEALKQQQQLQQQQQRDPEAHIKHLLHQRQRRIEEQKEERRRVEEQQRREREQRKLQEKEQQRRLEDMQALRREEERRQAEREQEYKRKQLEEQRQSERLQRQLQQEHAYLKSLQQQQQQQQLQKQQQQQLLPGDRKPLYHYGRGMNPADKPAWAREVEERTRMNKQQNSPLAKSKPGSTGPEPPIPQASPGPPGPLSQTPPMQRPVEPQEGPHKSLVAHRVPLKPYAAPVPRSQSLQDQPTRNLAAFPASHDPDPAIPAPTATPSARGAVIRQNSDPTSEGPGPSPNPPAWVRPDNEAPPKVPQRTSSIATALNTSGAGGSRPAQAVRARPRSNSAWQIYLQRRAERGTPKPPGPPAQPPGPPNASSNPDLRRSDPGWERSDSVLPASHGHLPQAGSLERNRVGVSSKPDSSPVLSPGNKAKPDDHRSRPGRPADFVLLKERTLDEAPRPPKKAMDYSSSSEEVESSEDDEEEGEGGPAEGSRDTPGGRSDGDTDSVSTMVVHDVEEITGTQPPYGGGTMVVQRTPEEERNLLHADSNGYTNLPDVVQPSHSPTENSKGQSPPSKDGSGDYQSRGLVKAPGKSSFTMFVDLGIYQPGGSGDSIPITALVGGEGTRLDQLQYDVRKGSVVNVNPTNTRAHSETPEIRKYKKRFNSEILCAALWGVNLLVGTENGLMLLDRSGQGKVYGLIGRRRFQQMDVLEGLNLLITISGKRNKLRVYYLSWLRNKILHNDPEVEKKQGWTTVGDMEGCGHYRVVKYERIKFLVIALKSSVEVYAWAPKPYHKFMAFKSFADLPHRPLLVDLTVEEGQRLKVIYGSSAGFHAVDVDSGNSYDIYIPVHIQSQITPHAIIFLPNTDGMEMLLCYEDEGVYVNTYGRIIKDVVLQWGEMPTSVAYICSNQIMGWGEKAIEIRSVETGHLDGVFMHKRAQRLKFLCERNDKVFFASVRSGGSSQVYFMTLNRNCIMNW
UniProt Q99797: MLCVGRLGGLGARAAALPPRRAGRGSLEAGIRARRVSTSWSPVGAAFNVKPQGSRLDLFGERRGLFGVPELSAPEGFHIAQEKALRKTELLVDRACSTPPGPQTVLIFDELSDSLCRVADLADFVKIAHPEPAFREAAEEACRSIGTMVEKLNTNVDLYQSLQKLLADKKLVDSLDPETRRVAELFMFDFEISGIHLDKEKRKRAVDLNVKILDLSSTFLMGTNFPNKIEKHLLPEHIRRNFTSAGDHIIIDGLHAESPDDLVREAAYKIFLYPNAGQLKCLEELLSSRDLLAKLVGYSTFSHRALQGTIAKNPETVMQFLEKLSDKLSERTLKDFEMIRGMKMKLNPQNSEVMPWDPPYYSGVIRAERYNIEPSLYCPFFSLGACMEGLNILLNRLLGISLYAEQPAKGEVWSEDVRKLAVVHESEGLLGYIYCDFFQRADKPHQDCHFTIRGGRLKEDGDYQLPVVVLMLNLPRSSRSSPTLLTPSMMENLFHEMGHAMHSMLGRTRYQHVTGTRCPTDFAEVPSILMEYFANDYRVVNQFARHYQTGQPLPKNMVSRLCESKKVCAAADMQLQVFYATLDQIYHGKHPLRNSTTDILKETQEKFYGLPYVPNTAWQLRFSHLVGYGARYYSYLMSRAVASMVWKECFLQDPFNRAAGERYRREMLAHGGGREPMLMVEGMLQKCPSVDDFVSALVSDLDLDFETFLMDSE
UniProt O95563: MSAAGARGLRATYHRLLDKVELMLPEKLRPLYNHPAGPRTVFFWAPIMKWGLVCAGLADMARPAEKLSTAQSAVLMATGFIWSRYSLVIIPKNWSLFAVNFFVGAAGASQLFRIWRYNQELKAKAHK
UniProt Q96T76: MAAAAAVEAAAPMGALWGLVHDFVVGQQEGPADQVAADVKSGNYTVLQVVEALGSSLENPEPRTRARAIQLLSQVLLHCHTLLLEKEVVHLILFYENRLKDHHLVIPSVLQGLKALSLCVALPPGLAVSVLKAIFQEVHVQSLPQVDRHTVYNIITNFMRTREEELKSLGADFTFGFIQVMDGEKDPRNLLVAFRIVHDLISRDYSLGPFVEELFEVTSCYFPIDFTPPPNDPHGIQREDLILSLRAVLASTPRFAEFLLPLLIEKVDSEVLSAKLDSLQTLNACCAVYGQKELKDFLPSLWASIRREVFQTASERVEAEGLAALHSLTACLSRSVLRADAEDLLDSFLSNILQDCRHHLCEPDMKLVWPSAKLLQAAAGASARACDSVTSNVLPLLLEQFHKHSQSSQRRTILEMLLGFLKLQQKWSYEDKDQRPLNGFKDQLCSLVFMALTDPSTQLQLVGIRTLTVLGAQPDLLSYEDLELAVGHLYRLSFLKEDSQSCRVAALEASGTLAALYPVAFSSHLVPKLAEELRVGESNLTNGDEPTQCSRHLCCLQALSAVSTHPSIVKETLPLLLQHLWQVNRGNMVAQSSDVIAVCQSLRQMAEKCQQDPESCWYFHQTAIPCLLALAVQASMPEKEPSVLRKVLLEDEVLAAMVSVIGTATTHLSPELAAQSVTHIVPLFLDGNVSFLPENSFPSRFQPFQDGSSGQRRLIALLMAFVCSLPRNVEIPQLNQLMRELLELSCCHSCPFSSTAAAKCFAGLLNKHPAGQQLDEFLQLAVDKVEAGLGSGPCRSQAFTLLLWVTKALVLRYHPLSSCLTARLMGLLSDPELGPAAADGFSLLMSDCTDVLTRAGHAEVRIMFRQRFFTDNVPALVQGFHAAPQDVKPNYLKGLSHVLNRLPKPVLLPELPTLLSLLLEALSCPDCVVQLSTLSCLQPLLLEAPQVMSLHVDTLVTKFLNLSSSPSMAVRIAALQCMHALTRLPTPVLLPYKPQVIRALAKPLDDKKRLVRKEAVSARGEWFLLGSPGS
UniProt Q99547: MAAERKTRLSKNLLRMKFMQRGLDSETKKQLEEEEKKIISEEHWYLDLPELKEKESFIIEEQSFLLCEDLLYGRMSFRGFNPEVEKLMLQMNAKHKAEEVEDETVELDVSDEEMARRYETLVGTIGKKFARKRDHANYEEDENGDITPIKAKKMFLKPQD
UniProt Q9UL63, whole entry, looked up: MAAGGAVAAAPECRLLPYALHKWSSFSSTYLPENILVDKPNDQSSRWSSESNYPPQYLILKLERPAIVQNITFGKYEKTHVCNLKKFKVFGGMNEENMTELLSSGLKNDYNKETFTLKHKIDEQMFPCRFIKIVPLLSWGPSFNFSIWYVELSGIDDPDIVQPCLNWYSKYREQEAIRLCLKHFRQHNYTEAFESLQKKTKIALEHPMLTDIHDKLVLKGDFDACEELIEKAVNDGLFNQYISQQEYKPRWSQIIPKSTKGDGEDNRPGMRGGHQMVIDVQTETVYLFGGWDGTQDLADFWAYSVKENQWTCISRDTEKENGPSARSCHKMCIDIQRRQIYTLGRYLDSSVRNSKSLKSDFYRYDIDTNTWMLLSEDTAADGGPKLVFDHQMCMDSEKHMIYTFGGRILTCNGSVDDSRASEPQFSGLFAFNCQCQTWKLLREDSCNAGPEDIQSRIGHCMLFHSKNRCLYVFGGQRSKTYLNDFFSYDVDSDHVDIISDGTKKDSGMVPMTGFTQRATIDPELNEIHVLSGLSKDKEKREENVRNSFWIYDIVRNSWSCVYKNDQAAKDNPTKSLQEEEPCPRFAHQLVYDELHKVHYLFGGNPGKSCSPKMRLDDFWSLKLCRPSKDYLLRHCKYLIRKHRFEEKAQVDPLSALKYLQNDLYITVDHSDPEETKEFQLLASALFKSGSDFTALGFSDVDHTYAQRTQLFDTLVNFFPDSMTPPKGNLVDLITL
UniProt Q9BRT3: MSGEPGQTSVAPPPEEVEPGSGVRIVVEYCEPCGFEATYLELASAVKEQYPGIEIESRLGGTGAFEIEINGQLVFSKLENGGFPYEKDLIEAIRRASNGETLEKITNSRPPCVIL

Compound in one assay: COc1cc(C(=O)O)ccc1NC(=O)[C@@H]1N[C@@H](CC(C)(C)C)[C@](C#N)(c2ccc(Cl)cc2F)[C@H]1c1cccc(Cl)c1F [idasanutlin]
Briefly: log2 fold change, soluble protein after heating vs DMSO (PISA); higher = thermal stabilisation; K562 cells, 10 uM, 30 min; active = over 0.2 and 3.5 SD of the protein, either way, in both replicates (recomputed). The essentials: (§1)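 Soluble protein was defined as the supernatant after 21,000xg for 90 min. It came from K562 cells at 2×10^6 cells/mL given 10 μM compound for 30 min, heated in aliquots for 3 min across 48°C-58°C, pooled, and extracted in PBS with 0.5% NP-40 at 4°C, and was quantified by TMTpro 16plex LC-MS/MS with equalised channel sums. Thermal stability against control samples, from duplicates, is reported as log2 fold change.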
Turning to MRPL41 (UniProt Q8IXM3), the log2 fold change is inactive: -0.085.

For MMTAG2 (UniProt Q9BU76), the log2 fold change was inactive: 0.208.

As to MOCS2 (UniProt O96007), the log2 fold change is inactive: -0.042.

Consider MMAB (UniProt Q96EY8), for which the log2 fold change is inactive: -0.056.

As for MPST isoform 2 (UniProt P25325), the log2 fold change is inactive: -0.042.

In the case of MRPL53 (UniProt Q96EL3), the log2 fold change was inactive: 0.093.

Regarding MPI (UniProt P34949), the log2 fold change is inactive: 0.002.

On to MIF (UniProt P14174), for which the log2 fold change is inactive: 0.043.

In the case of MRPL50 (UniProt Q8N5N7), the log2 fold change is inactive: -0.122.

As to MRPL51 (UniProt Q4U2R6), the log2 fold change is inactive: 0.086.

As to MRPL42 (UniProt Q9Y6G3), the log2 fold change is inactive: 0.012.

With MRPL45 (UniProt Q9BRJ2), the log2 fold change was inactive: -0.115.

Consider MIOS (UniProt Q9NXC5), for which the log2 fold change is inactive: 0.057.

MRE11 isoform 3 (UniProt P49959): the log2 fold change was inactive: 0.04.

For the target MPHOSPH8 isoform 2 (UniProt Q99549), the log2 fold change is inactive: 0.062.

Consider MRPL19 (UniProt P49406), for which the log2 fold change is inactive: -0.096.

Take MIEF1 (UniProt L0R8F8): the log2 fold change is inactive: -0.063.

On to MRPL28 (UniProt Q13084), for which the log2 fold change was inactive: -0.098.

MIF4GD isoform 3 (UniProt A9UHW6): the log2 fold change is inactive: -0.011.

Regarding MRPL4 (UniProt Q9BYD3), the log2 fold change was inactive: 0.012.

On to MRPL46 (UniProt Q9H2W6), for which the log2 fold change is inactive: -0.012.

On to MINK1 (UniProt Q8N4C8), for which the log2 fold change is inactive: 0.013.

Regarding MRPL20 (UniProt Q9BYC9), the log2 fold change was inactive: -0.08.

In the case of MRPL22 (UniProt Q9NWU5), the log2 fold change was inactive: -0.149.

In the case of MPZL1 (UniProt O95297), the log2 fold change is inactive: 0.021.

MRPL27 (UniProt Q9P0M9): the log2 fold change is inactive: -0.043.

MKRN2 (UniProt Q9H000): the log2 fold change was inactive: 0.147.

Consider MIPEP (UniProt Q99797), for which the log2 fold change was inactive: 0.007.

As for MRPL55 isoform 2 (UniProt Q7Z7F7), the log2 fold change was inactive: -0.077.

On to MRPL30 isoform 2 (UniProt Q8TCC3), for which the log2 fold change was inactive: -0.011.

Turning to MPC2 (UniProt O95563), the log2 fold change is inactive: -0.01.

On to MMS19 isoform 8 (UniProt Q96T76), for which the log2 fold change is inactive: -0.014.

Turning to MOB3A (UniProt Q96BX8), the log2 fold change is inactive: -0.195.

Regarding MICOS13 (UniProt Q5XKP0), the log2 fold change is inactive: -0.144.

Take MPHOSPH6 (UniProt Q99547): the log2 fold change was inactive: 0.102.

Turning to MKLN1 (UniProt Q9UL63), the log2 fold change was inactive: 0.015.

Consider MINDY3 (UniProt Q9H8M7), for which the log2 fold change was inactive: -0.033.

For the target MRPL1 (UniProt Q9BYD6), the log2 fold change is inactive: 0.037.

Turning to MIEN1 (UniProt Q9BRT3), the log2 fold change is inactive: -0.009.

Compound in the next assay: COc1cc(Nc2ncc3c(n2)-c2ccc(Cl)cc2C(c2c(F)cccc2OC)=NC3)ccc1C(=O)O [alisertib]
The description is as above. The procedure, abridged:
as §1
As to MRPL41 (UniProt Q8IXM3), the log2 fold change was inactive: 0.093.

On to MMTAG2 (UniProt Q9BU76), for which the log2 fold change was inactive: -0.253.

For the target MOCS2 (UniProt O96007), the log2 fold change was inactive: 0.044.

As for MMAB (UniProt Q96EY8), the log2 fold change is inactive: -0.029.

With MPST isoform 2 (UniProt P25325), the log2 fold change is inactive: 0.057.

In the case of MRPL53 (UniProt Q96EL3), the log2 fold change was inactive: -0.071.

Take MPI (UniProt P34949): the log2 fold change is inactive: -0.008.

On to MIF (UniProt P14174), for which the log2 fold change is inactive: 0.043.

For MRPL50 (UniProt Q8N5N7), the log2 fold change is inactive: -0.078.

As for MRPL51 (UniProt Q4U2R6), the log2 fold change is inactive: -0.081.

As for MRPL42 (UniProt Q9Y6G3), the log2 fold change is inactive: -0.008.

As for MRPL45 (UniProt Q9BRJ2), the log2 fold change was inactive: -0.153.

Take MIOS (UniProt Q9NXC5): the log2 fold change is inactive: -0.066.

Turning to MRE11 isoform 3 (UniProt P49959), the log2 fold change was inactive: -0.045.

For the target MPHOSPH8 isoform 2 (UniProt Q99549), the log2 fold change was inactive: -0.016.

For the target MRPL19 (UniProt P49406), the log2 fold change was inactive: -0.034.

For the target MIEF1 (UniProt L0R8F8), the log2 fold change was inactive: -0.084.

Turning to MRPL28 (UniProt Q13084), the log2 fold change was inactive: -0.023.

For the target MIF4GD isoform 3 (UniProt A9UHW6), the log2 fold change was inactive: -0.023.

In the case of MRPL4 (UniProt Q9BYD3), the log2 fold change was inactive: 0.017.

On to MRPL46 (UniProt Q9H2W6), for which the log2 fold change was inactive: -0.063.

In the case of MINK1 (UniProt Q8N4C8), the log2 fold change is inactive: -0.042.

On to MRPL20 (UniProt Q9BYC9), for which the log2 fold change was inactive: -0.094.

As to MRPL22 (UniProt Q9NWU5), the log2 fold change is inactive: 0.099.

Regarding MPZL1 (UniProt O95297), the log2 fold change was inactive: -0.06.

Regarding MRPL27 (UniProt Q9P0M9), the log2 fold change was inactive: -0.097.

In the case of MKRN2 (UniProt Q9H000), the log2 fold change was inactive: -0.009.

In the case of MIPEP (UniProt Q99797), the log2 fold change is inactive: -0.017.

Take MRPL55 isoform 2 (UniProt Q7Z7F7): the log2 fold change was inactive: 0.024.

Turning to MRPL30 isoform 2 (UniProt Q8TCC3), the log2 fold change was inactive: -0.056.

Consider MPC2 (UniProt O95563), for which the log2 fold change was inactive: 0.027.

As to MMS19 isoform 8 (UniProt Q96T76), the log2 fold change is inactive: -0.019.

With MOB3A (UniProt Q96BX8), the log2 fold change is inactive: 0.074.

As for MICOS13 (UniProt Q5XKP0), the log2 fold change was inactive: -0.014.

Consider MPHOSPH6 (UniProt Q99547), for which the log2 fold change is inactive: 0.455.

In the case of MKLN1 (UniProt Q9UL63), the log2 fold change is inactive: -0.059.

As for MINDY3 (UniProt Q9H8M7), the log2 fold change was inactive: -0.015.

Take MRPL1 (UniProt Q9BYD6): the log2 fold change is inactive: 0.06.

For MIEN1 (UniProt Q9BRT3), the log2 fold change is inactive: 0.034.

Values taken from the supplement of paper PMC10849652.
